Data source: PubChem BioAssay AID743121 (NCATS, 2013)
Purpose: 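Genes whose silencing strengthens cell killing by camptothecin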 (primary screen). Cells: MDA-MB-231 cells, a human breast cancer line. Reagent: single siRNA against human genes, 20 nM siRNA (0.8 pmol per well). Timing: 120 h (drug added 48 h after transfection, read 72 h later). Challenge: camptothecin 20 nM (about EC30) for 72 h; vehicle 0.1% DMSO in parallel plates. Detection: 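Cell viability by ATP luminescence (CellTiter-Glo) as % of non-targeting siRNA wells, and the log2 ratio of viability without drug over viability with camptothecin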. Reading the numbers: log2 vehicle/camptothecin viability: higher = stronger sensitisation to camptothecin. Rule for the call: 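Each gene scored by redundant siRNA activity (RSA) over its individual siRNA ratios; a gene is called active at p < 0.001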.
The deposit covers about 26,000 reagents; below is a part drawn at random. 167 of all reagents (0.63%) count as active. 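Calls are per gene from RSA p-values that are not deposited; an individual active-marked siRNA can sensitise only weakly.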 Entries without a mark were called inactive. Reagents against one gene are numbered here. Further read-outs or replicates are left out here. Reagent sequences are not shown.

log2 vehicle/camptothecin viability, by gene knocked down and reagent
BAIAP3: #1 -0.0353; #2 0.769; #3 -0.197; #4 -0.145
ITPKA: #1 0.213; #2 -0.343; #3 -0.163; #4 -0.445
CLCA2: #1 0.388; #2 0.349; #3 0.132; #4 -0.131
FRS2: #1 0.147; #2 -0.109; #3 -0.119; #4 1.12
APRT: #1 -0.0295; #2 -0.529; #3 -0.248; #4 -0.118
UBA52: #1 0.0206; #2 -0.295; #3 0.328; #4 -0.185
ERCC4: #1 -0.189; #2 -0.0504; #3 -0.0731; #4 0.188
ATP5F1A: #1 -0.186; #2 -0.194; #3 -0.121; #4 -0.12
MMP2: #1 -0.421; #2 -0.121; #3 -0.0552; #4 -0.182
SOD1: #1 -0.337; #2 -0.231; #3 -0.112; #4 -0.316
GPR150: #1 -0.496; #2 -0.353; #3 -0.279; #4 -0.54
OSCAR: #1 -0.291; #2 -0.433; #3 -0.547; #4 -0.246

Records above whose target name begins with O or o:
log2 vehicle/camptothecin viability, by gene knocked down and reagent
OSCAR: #1 -0.291; #2 -0.433; #3 -0.547; #4 -0.246
